Results taken from PMC3892065.
These are yes or no findings as the source states them, for the method shown. In cells and extracts the contact can be indirect. Some results given as binding are weak or reduced against the parent protein; the word gives no strength.

Sequences of proteins named here, by UniProt entry; tags and fusion partners are left off.
UniProt Q6DV79: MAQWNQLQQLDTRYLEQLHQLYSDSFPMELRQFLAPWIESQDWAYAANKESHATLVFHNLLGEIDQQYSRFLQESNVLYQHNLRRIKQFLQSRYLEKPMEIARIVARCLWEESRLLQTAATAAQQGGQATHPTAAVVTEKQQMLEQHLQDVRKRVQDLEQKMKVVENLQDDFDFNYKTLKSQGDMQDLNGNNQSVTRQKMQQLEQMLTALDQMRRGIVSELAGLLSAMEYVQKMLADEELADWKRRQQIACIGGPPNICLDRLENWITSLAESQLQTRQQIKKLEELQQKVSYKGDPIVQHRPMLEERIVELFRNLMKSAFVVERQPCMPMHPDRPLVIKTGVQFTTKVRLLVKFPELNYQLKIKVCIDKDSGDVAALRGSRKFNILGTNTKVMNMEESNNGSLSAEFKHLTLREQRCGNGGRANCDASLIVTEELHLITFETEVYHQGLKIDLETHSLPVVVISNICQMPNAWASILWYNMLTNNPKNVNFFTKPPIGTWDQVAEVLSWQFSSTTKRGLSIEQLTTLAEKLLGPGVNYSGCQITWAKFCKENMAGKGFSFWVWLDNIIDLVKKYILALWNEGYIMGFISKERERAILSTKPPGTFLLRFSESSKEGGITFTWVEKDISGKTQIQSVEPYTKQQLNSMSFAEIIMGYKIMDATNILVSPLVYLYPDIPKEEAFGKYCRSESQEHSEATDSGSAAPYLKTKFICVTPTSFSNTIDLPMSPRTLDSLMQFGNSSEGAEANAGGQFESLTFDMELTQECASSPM

Target: T1, CCAAT/enhancer binding protein beta (chicken (endogenous in liver)) (UniProt Q05826)
T1 sequence: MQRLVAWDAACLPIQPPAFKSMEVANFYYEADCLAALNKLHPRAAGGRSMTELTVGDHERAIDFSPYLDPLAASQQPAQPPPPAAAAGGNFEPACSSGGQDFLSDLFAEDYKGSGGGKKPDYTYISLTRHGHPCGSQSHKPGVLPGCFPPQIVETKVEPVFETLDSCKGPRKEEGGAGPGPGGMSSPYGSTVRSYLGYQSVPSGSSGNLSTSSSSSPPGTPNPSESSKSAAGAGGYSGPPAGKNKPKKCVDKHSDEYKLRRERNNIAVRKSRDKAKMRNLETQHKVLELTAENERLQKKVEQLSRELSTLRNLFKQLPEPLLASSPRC
Assay: co-IP; 200 μg protein extracts from frozen chicken liver, pre-cleared with protein A/G agarose beads, immunoprecipitated with 4 μg anti-C/EBPβ antibody overnight at 4°C; normal rabbit IgG as negative control; Western blot

## phosphorylated signal transducer and activator of transcription 3 (from UniProt Q6DV79 1-771)
  binding: binds
